We go through one molecule from patent publication US20130324437A1, “METHOD FOR IDENTIFYING ANTIMICROBIAL COMPOUNDS AND DETERMINING ANTIBIOTIC SENSITIVITY” (THE REGENTS OF THE UNIVERSITY OF CALIFORNIA, priority 2010, published 2013).

The assay deals with E. coli strain JP750. Type of assay: cell-based, Escherichia coli. The note with it: LB, 30° C., FIG. 2. The method, then:
The dose-dependent cytological profiles for the various classes of antibiotics was determined. In general, a series of cultures of the appropriate strain were grown in LB at 30° C. until the cultures reached a density of approximately 2×10^8 cells/ml, at which point the compound of interest was added so that the final concentrations ranged from 0 to 200 μg/ml. For each compound, samples representing ⅕×, 1× and 5× the MIC were examined. Samples were taken at various times after addition of drug (ranging from 0.2 to 3 hours). The cells were stained with FM 4-64 (1 μg/ml) to visualize the cell membranes and DAPI (5 μg/ml) to visualize the chromosome (Pogliano et al. (1999) Mol. Microbiol. 31:1149). Samples can also be incubated in very small volumes (10 μl or less) with similar results.
Images of each stain and any fluorescently-tagged fusion protein present in the strain were then captured using a high resolution microscope. Cell length and width, chromosome length and shape, distance of the chromosome from each cell pole, the number of chromosomes per cell, and the presence and distribution of GFP (or GFP fusions) present within the cells were measured.
In the specific examples described below, E. coli strain JP750 was grown for 2 hours at 30° C. in the presence of various concentrations of nalidixic acid, chloramphenicol, or cephalexin, ranging from 0 to 30 μg/ml. […]

`CC1=C(C(=O)O)N2C(=O)[C@@H](NC(=O)[C@H](N)c3ccccc3)[C@H]2SC1` [cephalexin]: the SeqA-GFP foci distribution entry is “multiple SeqA-GFP foci that are spread uniformly throughout the cell”.
